Data from PMC7385925.
These are yes or no findings as the source states them, for the method shown.

Biological target: T1, REPRODUCTIVE MERISTEM 7 (Arabidopsis thaliana) (UniProt Q84R27)
T1 sequence: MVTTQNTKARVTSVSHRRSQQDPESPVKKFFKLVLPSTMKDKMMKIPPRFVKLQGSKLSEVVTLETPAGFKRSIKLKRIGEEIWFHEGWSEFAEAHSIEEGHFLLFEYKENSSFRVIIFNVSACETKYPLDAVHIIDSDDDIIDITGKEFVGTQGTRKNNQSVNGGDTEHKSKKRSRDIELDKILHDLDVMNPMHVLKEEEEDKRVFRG
Assay: two-hybrid; yeast two-hybrid assays; bait and prey orientation not told in the text shown

B1: ARABIDOPSIS THALIANA HOMEOBOX PROTEIN 25 (protein, UniProt Q9FKP8 1-279)
chain: MEFEDNNNNNDEEQEEDMNLHEEEEDDDAVYDSPPLSRVLPKASTESHETTGTTSTGGGGGFMVVHGGGGSRFRFRECLKNQAVNIGGHAVDGCGEFMPAGIEGTIDALKCAACGCHRNFHRKELPYFHHAPPQHQPPPPPPGFYRLPAPVSYRPPPSQAPPLQLALPPPQRERSEDPMETSSAEAGGGIRKRHRTKFTAEQKERMLALAERIGWRIQRQDDEVIQRFCQETGVPRQVLKVWLHNNKHTLGKSPSPLHHHQAPPPPPPQSSFHHEQDQP
B1 was tested, and the binding was “no binding”.
